Drawing on ChEMBL document CHEMBL1156116, “Histone deacetylase and microtubules as targets for the synthesis of releasable conjugate compounds” (Bioorg Med Chem Lett, 2009), this text covers IC50 for one molecule.

The test system of this assay is IGROV-1. Kind of assay: Antiproliferative activity against human IGROV1 cells assessed as growth inhibition after 72 hrs by Coulter counting analysis. To be noted: IGROV-1, 72 h. In kind it is functional, cell-based.

In the case of `COc1cc2c(c(OC)c1OC)-c1ccc(SC)c(=O)cc1[C@@H](N)CC2`, the IC50 was determined as 0.023 µM.

As usually defined, the IC50 is the point on the concentration scale where inhibition reaches its midpoint.
